For eight molecules, binding results are on record in article doi:10.1101/2021.06.22.449524.

Chains of the proteins cited; added tags and fusions are not shown.
UniProt O09106: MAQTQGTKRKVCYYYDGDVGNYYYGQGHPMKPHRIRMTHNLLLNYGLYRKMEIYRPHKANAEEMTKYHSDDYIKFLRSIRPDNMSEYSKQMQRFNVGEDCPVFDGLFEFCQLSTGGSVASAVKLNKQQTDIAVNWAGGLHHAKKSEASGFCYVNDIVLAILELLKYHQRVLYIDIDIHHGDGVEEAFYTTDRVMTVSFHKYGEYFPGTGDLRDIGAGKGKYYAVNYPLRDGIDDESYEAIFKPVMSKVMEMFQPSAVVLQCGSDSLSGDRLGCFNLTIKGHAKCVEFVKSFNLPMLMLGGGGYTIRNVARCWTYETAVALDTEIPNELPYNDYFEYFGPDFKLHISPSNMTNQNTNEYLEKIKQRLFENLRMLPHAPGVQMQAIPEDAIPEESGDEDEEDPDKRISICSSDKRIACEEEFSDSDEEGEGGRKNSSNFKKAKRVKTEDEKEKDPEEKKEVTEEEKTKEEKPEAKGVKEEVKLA
UniProt P70288: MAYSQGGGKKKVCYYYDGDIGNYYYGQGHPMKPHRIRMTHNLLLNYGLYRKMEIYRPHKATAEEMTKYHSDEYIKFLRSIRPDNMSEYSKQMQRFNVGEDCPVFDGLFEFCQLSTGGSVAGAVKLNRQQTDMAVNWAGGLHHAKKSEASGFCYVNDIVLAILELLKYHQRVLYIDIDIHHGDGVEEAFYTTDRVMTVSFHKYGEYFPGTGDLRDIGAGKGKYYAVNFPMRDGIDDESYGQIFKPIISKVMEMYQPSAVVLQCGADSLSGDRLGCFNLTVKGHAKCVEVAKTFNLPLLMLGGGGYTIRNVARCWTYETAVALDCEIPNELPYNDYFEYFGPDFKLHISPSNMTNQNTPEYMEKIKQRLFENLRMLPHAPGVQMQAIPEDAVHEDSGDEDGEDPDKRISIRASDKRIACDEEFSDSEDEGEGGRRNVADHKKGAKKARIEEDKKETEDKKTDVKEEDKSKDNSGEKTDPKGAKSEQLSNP

Assay in all cases: co-IP
The target in assay [1] is T1, FLAG-tagged ZFP541 (mouse) (UniProt Q0GGX2).
T1 sequence: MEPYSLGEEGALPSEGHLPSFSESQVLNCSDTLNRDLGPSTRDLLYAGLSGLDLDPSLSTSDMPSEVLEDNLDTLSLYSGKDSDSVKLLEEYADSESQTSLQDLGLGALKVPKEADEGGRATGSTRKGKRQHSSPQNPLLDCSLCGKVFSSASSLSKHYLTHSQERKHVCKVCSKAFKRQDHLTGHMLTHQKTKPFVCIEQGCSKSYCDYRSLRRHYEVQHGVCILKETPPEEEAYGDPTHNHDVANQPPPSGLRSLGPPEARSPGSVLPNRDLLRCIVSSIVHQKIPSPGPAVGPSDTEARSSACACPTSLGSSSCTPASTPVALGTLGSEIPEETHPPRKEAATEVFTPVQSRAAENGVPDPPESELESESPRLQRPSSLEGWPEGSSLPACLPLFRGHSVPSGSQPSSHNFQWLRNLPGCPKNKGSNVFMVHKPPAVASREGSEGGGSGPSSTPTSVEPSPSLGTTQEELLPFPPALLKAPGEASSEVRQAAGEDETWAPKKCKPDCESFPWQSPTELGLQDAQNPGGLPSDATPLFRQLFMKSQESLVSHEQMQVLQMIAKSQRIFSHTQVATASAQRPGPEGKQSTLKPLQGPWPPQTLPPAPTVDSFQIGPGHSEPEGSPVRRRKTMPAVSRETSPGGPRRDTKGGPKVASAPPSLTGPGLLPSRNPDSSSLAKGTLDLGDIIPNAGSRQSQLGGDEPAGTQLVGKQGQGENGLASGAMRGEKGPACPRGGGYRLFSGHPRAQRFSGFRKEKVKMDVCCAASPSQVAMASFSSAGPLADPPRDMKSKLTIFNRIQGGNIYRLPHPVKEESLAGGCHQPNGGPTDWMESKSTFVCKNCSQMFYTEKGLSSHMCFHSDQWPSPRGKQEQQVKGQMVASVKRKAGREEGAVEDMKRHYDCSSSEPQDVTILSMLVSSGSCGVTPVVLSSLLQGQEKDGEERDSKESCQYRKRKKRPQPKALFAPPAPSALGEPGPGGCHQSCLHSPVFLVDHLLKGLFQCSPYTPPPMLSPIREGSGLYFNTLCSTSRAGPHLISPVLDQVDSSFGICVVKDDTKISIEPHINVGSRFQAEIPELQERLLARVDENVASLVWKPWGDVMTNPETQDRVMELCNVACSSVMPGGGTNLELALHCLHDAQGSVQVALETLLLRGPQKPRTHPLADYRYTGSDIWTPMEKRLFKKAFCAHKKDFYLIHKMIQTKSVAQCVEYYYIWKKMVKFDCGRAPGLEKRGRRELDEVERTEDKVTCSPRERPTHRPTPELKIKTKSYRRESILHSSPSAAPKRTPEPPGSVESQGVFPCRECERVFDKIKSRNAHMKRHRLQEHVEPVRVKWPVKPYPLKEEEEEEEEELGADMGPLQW

Assay [2] concerns the target T2, zinc finger protein 541 (ZFP541) (mouse (endogenous in testis)) (UniProt Q0GGX2).
T2 sequence: T1 sequence

Assay [3] addresses T1, FLAG-tagged ZFP541 (mouse). This is another data set of the same source.
Assay [4] deals with T2, zinc finger protein 541 (ZFP541) (mouse (endogenous in testis)). This is another data set of the same source.

Read-outs that look alike come from different tables or passages of the source. No constants are given. Whether binding was seen depends on the method and setting. Binding seen in cells or lysates may run through a third protein. Some results given as binding are weak or reduced against the parent protein; the word gives no strength. For some assays here: Where a sequence is shown, tags or fusion partners need not be part of it.

“MYC-tagged HDAC1 (from UniProt O09106 1-482)”: the binding result in assay [1] is recorded as “binds”.
For “histone deacetylase 2 (HDAC2) (from UniProt P70288 1-488)”, in assay [2], the binding result is recorded as “binds”.
As to “histone deacetylase 1 (HDAC1) (from UniProt O09106 1-482)”, in assay [2], the binding result is listed as “binds”.
As for “MYC-tagged HDAC2 (from UniProt P70288 1-488)”, in assay [1], the binding entry is “binds”.

B1: MYC-tagged KCTD19 (protein, UniProt Q562E2 1-927)
chain: MEEPGGLHESAEDLFHFNVGGWHFSVPRSKLAQFPDSLLWKEASALTSSENQRLFIDRDGSTFRHVHYYLYTSKLSFSSCAELNLLYEQALGLQLMPLLQTLDNLKEGRHHLRVRPADIPVAERASLNYWRTWKCISKPSDFPIKSPAFTGLHDKAPLGLMDTPLLDTEEEVHYCFLPLDLVAKYPSLVTEDNLLWLAETVALIECECSEFRFIVNFLRSHKILLPDNFSNIDVLEAEVEILEIPELTEAVRLYRMNMGGCSRTSCPPLSPGKGGRTASVESVKPLYLMALGLLVKYPDSALGQLRIESTLDGSRLYITGNGALFQHVRNWLGTCRLPLTETISEVYELCAFLDKRDITYEPMKVALKTHLEPRTLLPVDVLSEEWTAEVTIYSPQQIIKLYVGSHWYATTLQTLMKYPELLSNTQRVYWIAYGQTLLIHGDGQMFRHILNFLRLGKLFLPSEFKEWPLFCQEVEEYHIPALSEALAQCEAYKSWTQEKESENEEAFPIRKLHVVTEGTGPMAEFSRDAKETTACMPVDFQECSDRTPWNKAKGNLTRSSQMEEAEQYTRTIQVSLCRNAKRGGNPSTYSHCSGLCANPRHWGGHSESPPKKKCTTINLTQKPDAKDPPVTPMQKLISLVREWDMVNCKQWEFQPLPASRSSSVEEASLHVPSGSEAAPQPGTSAAWKAHSITSEKDAGPQTGPGAGVKDKGPEPTFKPYFPTKRAITLKDWGKQRPKDRESPAPEQPLPNANGTDNPGAILKVAHPPVVGNDGSCMFFEDSIIYTTQMDNIKHTSLTASPQLREVTFLSFSLSWEEMFYAQKCHRFLTDIILDSIRQKDPKAITAKVVSLAYRLWTLNISPKQFVVDLLAIAGFKDDRHTQERLYSWVELTLPFARKYGRCVDLLIQRGLSRSVSYSVLGKYLHEG
As for B1, the binding entry in assay [3] is “binds”.

B2: potassium channel tetramerization domain containing 19 (KCTD19) (protein, UniProt Q562E2 1-927)
chain: B1 chain
For B2, the binding result in assay [4] is recorded as “binds”.

B3: MYC-tagged DNTTIP1 (protein, UniProt Q99LB0 1-328)
chain: MGATGDTEQPRGPGGAERGGLELGDAGAAGQPVLTNPWNIMIKHRQVQRRGRRSQMTTSFTDPAISMDLLRAVLQPSINEEIQGVFNKYMKFFQKAALNVRDNVGEEVDAEQLIQEACRSCLEQAKLLFSDGEKVIPRLAHELPGIKRGRQAEEESHRGSPIPKKRKGRPPGHVLSNDRAAAGMVWKQKSCEPIRREGPKWDPARLNESTTFVLGSRANKALGMGGTRGRIYIKHPHLFKYAADPQDKHWLAEQHHMRATGGKMAYLLIEEDIRDLAASDDYRGCLDLKLEELKSFVLPSWMVEKMRKYMETLRTENEHRAAEAPPQT
Regarding B3, the binding result in assay [3] is recorded as “binds”.

B4: deoxynucleotidyltransferase terminal-interacting protein 1 (DNTTIP1) (protein, UniProt Q99LB0 1-328)
chain: B3 chain
In the case of B4, in assay [4], the binding entry was “binds”.
